Taken from: PubChem BioAssay AID652243 (Drosophila RNAi Screening Center, 2013)
Aim: 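Fly regulators of androgen-dependent reporter output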 (primary screen). System: Drosophila S2R+ cells. Reagent: long dsRNA against Drosophila genes. Duration: 72 h (48 h, then 24 h hormone). Conditions: synthetic androgen R1881 at 10 nM for 24 h. Read-out: 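Per-well raw luminescence of the androgen-driven firefly reporter and of the Renilla control, two replicates each, without normalisation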. Direction: firefly reporter light: higher = more light from androgen-responsive reporter; Renilla control light: higher = more constitutive control signal (cell number, transfection). Hit rule: 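Across duplicate plates, a knock-down whose log firefly/Renilla ratio shifted a set fold down or up from the GFP/LacZ control mean was a hit; the downward cut appears as both 1.5 and 3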. Meaning of the calls: active = hit: reporter lowered or raised; inactive = no hit.
The deposit covers about 24,000 reagents; shown is a random part of those with a known target gene and a result. Of all reagents, 246 (1%) got an active call. 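Plates not normalised; calls are printed but the firefly/Renilla ratio behind them is not deposited; fold cut for lowering reported inconsistently.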 Raw values vary from plate to plate and are shown uncorrected. A plus sign joins genes that one reagent is predicted to hit. Not stated in the record: the amount of reagent.

How did the screen score PK1-R [DRSC16577]?
firefly reporter light, replicate 1: 1.48e5; firefly reporter light, replicate 2: 1.67e5; Renilla control light, replicate 1: 2.06e6; Renilla control light, replicate 2: 2.64e6; outcome: inactive

With CG33468 [DRSC22940], what was measured?
firefly reporter light, replicate 1: 4.08e5; firefly reporter light, replicate 2: 8.02e5; Renilla control light, replicate 1: 7.12e5; Renilla control light, replicate 2: 1.20e6; outcome: inactive

For CG7120 [DRSC10773], how do the results read?
firefly reporter light, replicate 1: 2.17e5; firefly reporter light, replicate 2: 2.00e5; Renilla control light, replicate 1: 2.79e6; Renilla control light, replicate 2: 1.80e6; outcome: inactive

With CG15185 [DRSC12565], how do the results read?
firefly reporter light, replicate 1: 1.59e5; firefly reporter light, replicate 2: 1.38e5; Renilla control light, replicate 1: 2.71e6; Renilla control light, replicate 2: 2.19e6; outcome: inactive

How did the screen score ppk17 [DRSC02252]?
firefly reporter light, replicate 1: 1.68e5; firefly reporter light, replicate 2: 1.35e5; Renilla control light, replicate 1: 2.07e6; Renilla control light, replicate 2: 1.81e6; outcome: inactive

With hep [DRSC19839], what does the deposit list?
firefly reporter light, replicate 1: 2.71e5; firefly reporter light, replicate 2: 3.20e5; Renilla control light, replicate 1: 3.05e6; Renilla control light, replicate 2: 3.19e6; outcome: inactive

What did the screen give for hep [DRSC20337]?
firefly reporter light, replicate 1: 6.08e5; firefly reporter light, replicate 2: 8.44e5; Renilla control light, replicate 1: 4.97e6; Renilla control light, replicate 2: 5.55e6; outcome: inactive

How did the screen score hep [DRSC26331]?
firefly reporter light, replicate 1: 2.40e5; firefly reporter light, replicate 2: 2.53e5; Renilla control light, replicate 1: 5.54e5; Renilla control light, replicate 2: 5.82e5; outcome: inactive

For hep [DRSC36660], what does the deposit list?
outcome: inactive

4 entries already listed, sorted by “firefly reporter light, replicate 2”, lowest first:
ppk17 [DRSC02252] | firefly reporter light, replicate 1 = 1.68e5; firefly reporter light, replicate 2 = 1.35e5; Renilla control light, replicate 1 = 2.07e6; Renilla control light, replicate 2 = 1.81e6; outcome = inactive
CG15185 [DRSC12565] | firefly reporter light, replicate 1 = 1.59e5; firefly reporter light, replicate 2 = 1.38e5; Renilla control light, replicate 1 = 2.71e6; Renilla control light, replicate 2 = 2.19e6; outcome = inactive
CG7120 [DRSC10773] | firefly reporter light, replicate 1 = 2.17e5; firefly reporter light, replicate 2 = 2.00e5; Renilla control light, replicate 1 = 2.79e6; Renilla control light, replicate 2 = 1.80e6; outcome = inactive
hep [DRSC19839] | firefly reporter light, replicate 1 = 2.71e5; firefly reporter light, replicate 2 = 3.20e5; Renilla control light, replicate 1 = 3.05e6; Renilla control light, replicate 2 = 3.19e6; outcome = inactive

Next results:
For CG14718 [DRSC14941], what was measured?
firefly reporter light, replicate 1: 53647; firefly reporter light, replicate 2: 1.15e5; Renilla control light, replicate 1: 6.27e5; Renilla control light, replicate 2: 8.83e5; outcome: inactive

What did the screen give for CanA-14F + Pp2B-14D [DRSC36822]?
outcome: inactive

With Dlip3 [DRSC07401], what does the deposit list?
firefly reporter light, replicate 1: 44425; firefly reporter light, replicate 2: 53413; Renilla control light, replicate 1: 1.20e6; Renilla control light, replicate 2: 1.20e6; outcome: inactive

For Dlip3 [DRSC29615], what was measured?
firefly reporter light, replicate 1: 4.25e5; firefly reporter light, replicate 2: 4.07e5; Renilla control light, replicate 1: 8.32e5; Renilla control light, replicate 2: 8.32e5; outcome: inactive

For Sap-r [DRSC16849], what does the deposit list?
firefly reporter light, replicate 1: 4.24e5; firefly reporter light, replicate 2: 3.68e5; Renilla control light, replicate 1: 3.20e6; Renilla control light, replicate 2: 3.65e6; outcome: inactive

For Sap-r [DRSC21916], what does the deposit list?
firefly reporter light, replicate 1: 5.91e5; firefly reporter light, replicate 2: 7.16e5; Renilla control light, replicate 1: 1.64e5; Renilla control light, replicate 2: 1.92e5; outcome: inactive

For Sap-r [DRSC27246], what does the deposit list?
firefly reporter light, replicate 1: 3.25e5; firefly reporter light, replicate 2: 4.23e5; Renilla control light, replicate 1: 6.91e5; Renilla control light, replicate 2: 6.86e5; outcome: inactive

For CecA1 [DRSC16603], how do the results read?
firefly reporter light, replicate 1: 3.05e5; firefly reporter light, replicate 2: 2.54e5; Renilla control light, replicate 1: 2.14e6; Renilla control light, replicate 2: 3.79e6; outcome: inactive

What is on record for Plc21C [DRSC00773]?
firefly reporter light, replicate 1: 9.32e5; firefly reporter light, replicate 2: 8.49e5; Renilla control light, replicate 1: 3.55e6; Renilla control light, replicate 2: 2.17e6; outcome: inactive

With Gyc32E [DRSC01154], what does the deposit list?
firefly reporter light, replicate 1: 1.06e5; firefly reporter light, replicate 2: 1.60e5; Renilla control light, replicate 1: 1.52e5; Renilla control light, replicate 2: 2.58e5; outcome: inactive

For Gyc32E [DRSC29757], how do the results read?
firefly reporter light, replicate 1: 4.37e5; firefly reporter light, replicate 2: 4.03e5; Renilla control light, replicate 1: 1.79e6; Renilla control light, replicate 2: 1.52e6; outcome: inactive

For Gyc32E [DRSC39261], what was measured?
outcome: inactive

Which result is listed for ssp2 [DRSC11052]?
firefly reporter light, replicate 1: 9.23e5; firefly reporter light, replicate 2: 2.37e5; Renilla control light, replicate 1: 1.41e6; Renilla control light, replicate 2: 6.74e5; outcome: inactive

Which result is listed for ssp2 [DRSC23906]?
firefly reporter light, replicate 1: 7.16e5; firefly reporter light, replicate 2: 1.13e6; Renilla control light, replicate 1: 9.47e5; Renilla control light, replicate 2: 8.98e5; outcome: inactive

For Kah [DRSC07887], what was measured?
firefly reporter light, replicate 1: 1.60e5; firefly reporter light, replicate 2: 2.01e5; Renilla control light, replicate 1: 4.14e5; Renilla control light, replicate 2: 4.87e5; outcome: inactive

For Kah [DRSC08515], what does the deposit list?
firefly reporter light, replicate 1: 1.44e5; firefly reporter light, replicate 2: 1.22e5; Renilla control light, replicate 1: 2.73e6; Renilla control light, replicate 2: 2.34e6; outcome: inactive

For Kah [DRSC25608], what does the deposit list?
firefly reporter light, replicate 1: 1.03e6; firefly reporter light, replicate 2: 6.93e5; Renilla control light, replicate 1: 5.42e5; Renilla control light, replicate 2: 6.05e5; outcome: inactive

For CG31559 [DRSC12172], how do the results read?
firefly reporter light, replicate 1: 35867; firefly reporter light, replicate 2: 57724; Renilla control light, replicate 1: 1.47e6; Renilla control light, replicate 2: 1.52e6; outcome: inactive

With CG31559 [DRSC12270], how do the results read?
firefly reporter light, replicate 1: 33866; firefly reporter light, replicate 2: 46253; Renilla control light, replicate 1: 1.31e6; Renilla control light, replicate 2: 9.84e5; outcome: inactive
